The values below come from patent US7718651B2, “Inhibitors of FtsZ and uses thereof” (priority 2002, dated 2010).

The chains behind the UniProt entries cited, without tags or fusion partners. Where a name states a change or a piece, a line headed by the entry shows the natural chain unless it says otherwise.
UniProt P9WN95: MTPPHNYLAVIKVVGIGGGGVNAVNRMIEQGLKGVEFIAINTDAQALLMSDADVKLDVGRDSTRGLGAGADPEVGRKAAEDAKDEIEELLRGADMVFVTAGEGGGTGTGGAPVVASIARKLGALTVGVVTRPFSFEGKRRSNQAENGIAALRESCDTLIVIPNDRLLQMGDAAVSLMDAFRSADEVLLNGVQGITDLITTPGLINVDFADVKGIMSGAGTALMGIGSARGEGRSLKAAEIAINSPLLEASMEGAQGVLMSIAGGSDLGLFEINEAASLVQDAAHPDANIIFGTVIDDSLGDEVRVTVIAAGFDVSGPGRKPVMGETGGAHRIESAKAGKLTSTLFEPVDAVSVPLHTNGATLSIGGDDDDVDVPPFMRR

In this assay the target is M. tuberculosis FtsZ (Mycobacterium tuberculosis, UniProt P9WN95). Description: biochemical.

In general, IC50 refers to the concentration at which inhibition is half-maximal. Low values mean higher potency, high ones lower potency. Compound `COc1cc2c(c(OC)c1OC)-c1ccc(OC)c(=O)cc1[C@@H](NC(C)=O)CC2` [Colchicine, reference compound] came in with an IC50 of 104 ± 2 µM.
